Test results: PubChem BioAssay AID330 (DTP/NCI, 2004)
The list is a part of this screen's results and no random one: it is rich in T/C values a quarter to a half above the control, in often repeated tests (any T/C) and in doses without a T/C. Other doses and runs of a compound stand elsewhere. T/C is the treated group as % of the vehicle group. Some entries give survivors of the animals treated and no T/C: the source holds a T/C of zero for them, seemingly a mark for toxic or unscored doses. Some doses without a T/C left all or most animals alive at the check, yet need not have been tolerated: survival well below the control is almost never listed, so the zero probably covers shortened survival too. Survivors were counted at the toxicity check, usually on the fifth day, unless a day is given; later deaths do not show. Schedules are NCI's codes, read here as Q, the interval in days (D) or hours (H), X, the number of doses. Some entries were tested several times; the results are listed from low to high. For survival time, the PubChem record calls one and a half times the control and up active, and a quarter to a half above the control has no call in these data; cut-offs in other NCI protocols can differ. Some T/C values carry the count of animals alive at the toxicity check (mostly the fifth day); without a count, all were alive then.

Tested on: P388 leukemia ip, CD2F1 mice, survival T/C
Test: NCI In Vivo Anticancer Drug Screen. Data for tumor model P388 Leukemia (intraperitoneal) in CD2F1 (CDF1) mice
Conditions: T/C endpoint: median survival time, higher T/C = longer survival
[1] = dose: 50.0 mg/kg/injection, schedule: Q01DX009 (ip), vehicle: Klucel (hydroxypropylcellulose) (HPC)
[2] = dose: 100.0 mg/kg/injection, schedule: Q01DX009 (ip), vehicle: Klucel (hydroxypropylcellulose) (HPC)
[3] = dose: 200.0 mg/kg/injection, schedule: Q01DX009 (ip), vehicle: Klucel (hydroxypropylcellulose) (HPC)
[4] = dose: 50.0 mg/kg/injection, schedule: Q01DX005 (ip), vehicle: Klucel (hydroxypropylcellulose) (HPC)
[5] = dose: 200.0 mg/kg/injection, schedule: Q01DX005 (ip), vehicle: Klucel (hydroxypropylcellulose) (HPC)
[6] = dose: 100.0 mg/kg/injection, schedule: Q01DX009 (ip), vehicle: saline with Tween-80
[7] = dose: 200.0 mg/kg/injection, schedule: Q01DX009 (ip), vehicle: saline with Tween-80
[8] = dose: 50.0 mg/kg/injection, schedule: Q01DX009 (ip), vehicle: saline with Tween-80
[9] = dose: 200.0 mg/kg/injection, schedule: Q01DX009 (ip), vehicle: saline
[10] = dose: 200.0 mg/kg/injection, schedule: Q01DX005 (ip), vehicle: saline with Tween-80
[11] = dose: 100.0 mg/kg/injection, schedule: Q01DX005 (ip), vehicle: Klucel (hydroxypropylcellulose) (HPC)

With `O=C(O)/C=C/c1ccc([N+](=O)[O-])o1` the T/C [1] was 140 % of control, the T/C [2] was 135 % of control and the survivor count [2] was 2 of 6. The survivor count [3] was 0 of 6 and 1 of 6.
`CCc1nc(N)nc(N)c1-c1ccc(NCCc2ccccc2)c([N+](=O)[O-])c1` was tested, and the T/C [4] was 129 % of control and the T/C [5] was 142 % of control.
With `CCCCCCCCCc1ccc(OCCOCCOCCOCCOCCOCCOCCOCCOCCOC(C)N2CCCC2=O)cc1` (stereo unspecified) the survivor count [6] was 1 of 6, the survivor count [7] was 0 of 6 and the survivor count (dose: 400.0 mg/kg/injection, schedule: Q01DX009 (ip), vehicle: saline with Tween-80) was 0 of 6.
With `CCN(CC)CCNc1ccc(C)c2sc3ccc(N)cc3c(=O)c12` the T/C [8] was 138 % of control, the survivor count [6] was 6 of 6 and the survivor count [7] was 2 of 6.
`CN(C)C(C#N)C(=O)c1ccccc1` (stereo unspecified) was tested, and the survivor count [3] was 0 of 6.
`C/C(=N\N1CN(C(C)C(=O)O)P(N(CCO)CCO)N=C1N)c1cccs1` (stereo unspecified) was tested, and the survivor count (dose: 60.0 mg/kg/injection, schedule: Q01DX005 (ip), vehicle: saline) was 0 of 6, the survivor count (dose: 120.0 mg/kg/injection, schedule: Q01DX005 (ip), vehicle: saline) was 0 of 6 and the survivor count (dose: 240.0 mg/kg/injection, schedule: Q01DX005 (ip), vehicle: saline) was 0 of 6.
`CC(=O)OCC1OC([S][Sb]([CH3])[CH3])C(OC(C)=O)C(OC(C)=O)C1OC(C)=O` (stereo unspecified) was tested, and the T/C (dose: 60.0 mg/kg/injection, schedule: Q01DX005 (ip), vehicle: saline with Tween-80) was 128 % of control, the survivor count (dose: 120.0 mg/kg/injection, schedule: Q01DX005 (ip), vehicle: saline with Tween-80) was 1 of 6 and the survivor count (dose: 240.0 mg/kg/injection, schedule: Q01DX005 (ip), vehicle: saline with Tween-80) was 0 of 6.
For `COC(=O)Nc1cccc(-c2nc3ccc(NC(=O)OC)cc3c(=O)n2-c2ccccc2)c1`, the survivor count (dose: 32.0 mg/kg/injection, schedule: Q01DX005 (oral), vehicle: Klucel (hydroxypropylcellulose) (HPC)) was 2 of 6 and 3 of 6, the survivor count [1] was 5 of 6 and the T/C (dose: 50.0 mg/kg/injection, schedule: Q01DX009 (ip), vehicle: saline) was 130 % of control. For the same compound, the survivor count (dose: 64.0 mg/kg/injection, schedule: Q01DX005 (oral), vehicle: Klucel (hydroxypropylcellulose) (HPC)) was 2 of 6 and 3 of 6, the T/C (dose: 64.0 mg/kg/injection, schedule: Q01DX005 (oral), vehicle: saline) was 144 % of control and the survivor count [2] was 2 of 6. For the same compound, the T/C (dose: 100.0 mg/kg/injection, schedule: Q01DX009 (oral), vehicle: Klucel (hydroxypropylcellulose) (HPC)) was 146 % of control [5 of 6 alive], the survivor count (dose: 128.0 mg/kg/injection, schedule: Q01DX005 (oral), vehicle: Klucel (hydroxypropylcellulose) (HPC)) was 1 of 6 and 3 of 6 and the survivor count [3] was 2 of 6. For the same compound, the survivor count [9] was 4 of 6, the survivor count (dose: 256.0 mg/kg/injection, schedule: Q01DX005 (oral), vehicle: Klucel (hydroxypropylcellulose) (HPC)) was 2 of 6 and the survivor count (dose: 400.0 mg/kg/injection, schedule: Q01DX009 (ip), vehicle: saline) was 5 of 6. For the same compound, the survivor count (dose: 512.0 mg/kg/injection, schedule: Q01DX005 (oral), vehicle: Klucel (hydroxypropylcellulose) (HPC)) was 0 of 6 and the survivor count (dose: 1024.0 mg/kg/injection, schedule: Q01DX005 (oral), vehicle: Klucel (hydroxypropylcellulose) (HPC)) was 2 of 6.
In the case of `CC1=NOC(=O)/C1=C/c1ccccc1C`, the survivor count [10] is reported as 0 of 6.
`COc1cc(O)c(Cc2ccccc2O)c(O)c1C(=O)CCc1ccccc1` was tested, and the T/C (dose: 10.0 mg/kg/injection, schedule: Q01DX009 (ip), vehicle: saline with Tween-80) was 133 % of control.
For `COC(=O)C1=C(C(=O)OC)P2(C)(C)ON(c3ccccc3)C(C(=O)c3ccccc3)N2C1(c1ccccc1)c1ccccc1` (stereo unspecified), the survivor count [4] was 6 of 6, the survivor count [11] was 5 of 6 and the survivor count [5] was 6 of 6.
For `CC(C)C(NC(=O)CN(C)C(=O)OCc1ccccc1)C(=O)O` (stereo unspecified), the survivor count [10] was 3 of 6.
For `COc1cc(-c2ccc(Nc3ccccc3C(=O)O)c(OC)c2)ccc1Nc1ccccc1C(=O)O`, the T/C [9] was 126 % of control.
For `CCCCOc1cc(C(=O)O)ccc1[N+](=O)[O-]`, the survivor count (dose: 100.0 mg/kg/injection, schedule: Q04DX003 (ip), vehicle: saline with Tween-80) was 3 of 6.
`CC(=O)CC(c1ccccc1)C(C#N)c1ccccc1` (stereo unspecified) was tested, and the survivor count (dose: 50.0 mg/kg/injection, schedule: Q04DX003 (ip), vehicle: Klucel (hydroxypropylcellulose) (HPC)) was 6 of 6, the survivor count (dose: 100.0 mg/kg/injection, schedule: Q04DX003 (ip), vehicle: Klucel (hydroxypropylcellulose) (HPC)) was 6 of 6 and the survivor count (dose: 200.0 mg/kg/injection, schedule: Q04DX003 (ip), vehicle: Klucel (hydroxypropylcellulose) (HPC)) was 6 of 6.
In the case of `CN(C)c1ccc(/C=C2/SC(=S)NC2=O)cc1`, the survivor count [10] is reported as 6 of 6 and the survivor count (dose: 400.0 mg/kg/injection, schedule: Q01DX005 (ip), vehicle: saline with Tween-80) is reported as 6 of 6.
For `O=C(CO)N(O)c1ccc(Cl)cc1`, the survivor count (dose: 200.0 mg/kg/injection, schedule: Q01DX009 (ip), vehicle: water) was 0 of 6.
With `C[C@]12CCC(=O)C=C1CC[C@@H]1[C@@H]2CC[C@@]2(C)[C@H]1CCCN2CCO` the survivor count (dose: 200.0 mg/kg/injection, schedule: Q01DX001 (ip), vehicle: Klucel (hydroxypropylcellulose) (HPC)) was 3 of 5 and the survivor count (dose: 400.0 mg/kg/injection, schedule: Q01DX001 (ip), vehicle: Klucel (hydroxypropylcellulose) (HPC)) was 1 of 5.
With `CCOC(=O)C1CC1c1c(C)c2cc3[nH]c(cc4nc(cc5nc(cc1[nH]2)C(C)=C5CCC(=O)OC)C(CCC(=O)OC)=C4C)c(C)c3C1CC1C(=O)OCC` (stereo unspecified) the survivor count [10] was 6 of 6.
`O=[N+]([O-])c1ccc(N2c3ccccc3SC2c2ccco2)c([N+](=O)[O-])c1` (stereo unspecified) was tested, and the survivor count (dose: 50.0 mg/kg/injection, schedule: Q01DX005 (ip), vehicle: saline with Tween-80) was 5 of 5, the survivor count (dose: 100.0 mg/kg/injection, schedule: Q01DX005 (ip), vehicle: saline with Tween-80) was 5 of 5 and the survivor count [10] was 5 of 5.
For `CC(CCC1(O)OC2CC3C4CC=C5CC(OC6OC(CO)C(OC7OC(C)C(O)C(O)C7O)C(O)C6O)CCC5(C)C4CCC3(C)C2C1(C)C)COC1OC(C)C(O)C(O)C1O` (stereo unspecified), the survivor count (dose: 10.0 mg/kg/injection, schedule: Q01DX005 (ip), vehicle: Klucel (hydroxypropylcellulose) (HPC)) was 2 of 5, the survivor count (dose: 20.0 mg/kg/injection, schedule: Q01DX005 (ip), vehicle: Klucel (hydroxypropylcellulose) (HPC)) was 3 of 5 and the survivor count (dose: 40.0 mg/kg/injection, schedule: Q01DX005 (ip), vehicle: Klucel (hydroxypropylcellulose) (HPC)) was 0 of 5.
With `CC1(C)CN(c2ccccc2)N(CO)C1=O` the survivor count (dose: 25.0 mg/kg/injection, schedule: Q04DX003 (ip), vehicle: saline) was 0 of 6 and 3 of 6, the survivor count (dose: 50.0 mg/kg/injection, schedule: Q04DX003 (ip), vehicle: saline) was 0 of 6 and the survivor count (dose: 100.0 mg/kg/injection, schedule: Q04DX003 (ip), vehicle: saline) was 0 of 6.
In the case of `O=C1NC(=O)C(CCC[n+]2ccccc2)(c2ccccc2)C(=O)N1`, the survivor count [7] is reported as 0 of 6.
With `Cc1ccc(S(=O)(=O)C(c2ccccc2)C(Br)C(=O)c2ccccc2)cc1` (stereo unspecified) the survivor count (dose: 400.0 mg/kg/injection, schedule: Q04DX003 (ip), vehicle: saline) was 6 of 6.
`COC1NC(=O)N(C(C)C)C1(C)C` (stereo unspecified) was tested, and the survivor count (dose: 100.0 mg/kg/injection, schedule: Q01DX009 (ip), vehicle: saline) was 3 of 6.
In the case of `CN=C(c1ccc(NC(=O)c2ccc(C(=O)Nc3ccc(C(=NC)N4CCOCC4)cc3)cc2)cc1)N1CCOCC1`, the survivor count (dose: 25.0 mg/kg/injection, schedule: Q01DX005 (ip), vehicle: Klucel (hydroxypropylcellulose) (HPC)) is reported as 0 of 6, the survivor count [4] is reported as 0 of 6 and the survivor count [11] is reported as 0 of 6. The survivor count [5] was 0 of 6.
`CCC1CN2CCc3cc(OC)c(OC)cc3C2CC12CO2` (stereo unspecified) was tested, and the survivor count [8] was 5 of 6, the survivor count [6] was 2 of 6 and the survivor count [7] was 0 of 6.
In the case of `C/C(=N\N=C(\N)N1CCOCC1)c1ccc2c(c1)Cc1ccccc1-2`, the survivor count (dose: 200.0 mg/kg/injection, schedule: Q04DX002 (ip), vehicle: saline with Tween-80) is reported as 0 of 6 and the survivor count (dose: 400.0 mg/kg/injection, schedule: Q04DX002 (ip), vehicle: saline with Tween-80) is reported as 0 of 6.
